The campaign covered roughly 320,000 compounds. About 2,100 (0.66%) were called active. The inconclusive results got no clear call from the source; some entries with a clear call stand among them for comparison. Calls come from the whole dose curve; as a rule, active = well fitted inhibition curve with a large enough effect in the signal ratio, with a control signal flat (not every such curve was filed as active); inconclusive = small, poorly fitted or top-dose-only effect, or effect the other way, or a change in a side signal; inactive = flat fitted curve, though single readings scatter; the % refers to the signal ratio. Where the call is inconclusive, the potency comes from a doubtful curve fit.
test: qHTS Assay for Lipid Storage Modulators in Drosophila S3 Cells; settings: BODIPY lipid droplet fluorescence, 18-24 h, cells fed with added oleic acid; lipid storage change, negative = inhibition: at 46.1 µM (top of the series) unless noted
Method in brief: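 Drosophila S3 cells got compounds at several concentrations plus oleic acid (400 uM solution). Laser-scanning cytometry with 488 nm excitation read lipid droplets at 500-530 nm and cells at 575-640 nm. Percent activity was relative to 20 uM Triacsin C.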
% is set by controls: 0 for no effect and ±100 for the full control effect; potency is the fitted concentration of half-maximal effect.

Row | SMILES | lipid storage change, negative = inhibition | Potency
1 | O=C(C1CCC1)N1CCN(c2cccc(C(F)(F)F)c2)CC1 | inconclusive: -100% | –
2 | O=C1CCCC2=C1C1(CCCC1)N=C(Nc1nc3ccccc3o1)N2 | – | inconclusive: 2.06 µM [activator, single point]
3 | CCOc1ccc(CCNC(=O)CSc2cc(=O)n(C)c3ccccc23)cc1OCC | inconclusive: -45.6% | –
4 | Cc1cc(C(=O)COC(=O)c2cccnc2Cl)c(C)n1CC1CCCO1 (stereo unspecified) | inconclusive: 98.1% | –
5 | COc1ccc(CCN(C)C(=O)c2cc(S(=O)(=O)N3CCCCC3)ccc2Cl)cc1OC | – | inconclusive: 5.8 µM [activator, single point]
6 | CC(Sc1nncs1)C(=O)Nc1ccc2c(c1)OCO2 (stereo unspecified) | inconclusive: -30.8% | –
7 | O=c1[nH]c(C2CCN(S(=O)(=O)/C=C/c3ccccc3)CC2)nc2c1nnn2Cc1ccccc1 | inconclusive: 1.9% | –
8 | CCOc1c(CNCCNC(=O)c2nonc2N)cccc1OC | inconclusive: 68.2% | –
9 | CCN(CC)S(=O)(=O)c1ccc2[nH]c(=O)cc(C(=O)NCC(c3ccco3)N3CCCC3)c2c1 (stereo unspecified) | inconclusive: -9.89% | –
10 | CCc1cc2cc(C)ccc2nc1SCC(=O)NNC(=O)c1ccco1 | – | inconclusive: 29.1 µM [rising, single point]
11 | N#Cc1c(N)nc2c(c1N)CC(CCl)O2 (stereo unspecified) | inconclusive: 140% | –
12 | CCCCOc1ccc(C(=O)N2CCN(c3ncccn3)CC2)cc1 | – | inconclusive: 3.26 µM [activator, full curve]
13 | CCN1C(=S)SC(=O)C1=C1C=C(C)OC(C)=C1 | – | inconclusive: 32.6 µM [falling, single point]
14 | O=C1CC(NCc2ccc(F)cc2)C(=O)N1c1ccccc1 (stereo unspecified) | inconclusive: 8.75% | –
15 | Cc1cc(C)c(C(=O)O)c(CC(C)(C)C(=O)O)c1 | – | inconclusive: 29.1 µM [cytotoxic, single point]
16 | CCOC(=O)Cc1nnc(NC(=O)CSc2nnc3c4ccccc4n(C)c3n2)s1 | inconclusive: 36% | –
17 | COC(=O)C1CCC(=S)N1C(=O)c1ccccc1 (stereo unspecified) | inconclusive: 14% | –
18 | Cc1ccc(N=C2SCCCN2C(=O)c2ccco2)cc1Cl | inconclusive: 20% | –
19 | Cn1nc(-c2ccc(Cl)cc2)c2cc(C(=O)NCC3CCCO3)sc21 (stereo unspecified) | inconclusive: -41.2% | –
20 | CC1=CN2C(=NC(=O)CC2(C)C(=O)N(CC(=O)NC2CCCC2)Cc2ccc(Cl)cc2)C=C1 (stereo unspecified) | – | inconclusive: 0.58 µM [activator, single point]
21 | COc1cccc(-c2nnc(NC(=O)c3ccc(S(=O)(=O)N4CCOCC4)cc3)o2)c1 | inconclusive: 24.1% | –
22 | CCCCc1nc(Cl)c(CO)n1Cc1ccc(-c2ccccc2-c2nn[nH]n2)cc1 | inconclusive: 21.6% | –
23 | O=C1CN(C(=O)c2cc3ccccc3oc2=O)C(c2ccccc2)c2cc(F)ccc2N1 (stereo unspecified) | inconclusive: 5.2% | –
24 | Cc1ccc(-c2nn3c(C)nnc3c3ccccc23)cc1S(=O)(=O)NCCO | inconclusive: 30.4% | –
25 | Oc1ccccc1/C=N/n1c(-c2cccs2)n[nH]c1=S | inconclusive: 11.8% | –
26 | CCOC(=O)NC(=S)Nc1ccc(C(C)(C)C)cc1Br | inconclusive: -14.2% | –

Row | SMILES | lipid storage change, negative = inhibition | Potency
27 | CCOC(=O)c1[nH]c(C)c(C(=O)OCC(=O)N(Cc2ccccc2)C(C)C)c1C | – | inconclusive: 29.1 µM [falling, single point]
28 | CCCN1C(=O)c2cc(C(=O)NCc3cccs3)ccc2C1O (stereo unspecified) | inconclusive: 7.67% | –
29 | COc1ccc(S(=O)(=O)NCCSc2ccc(C)cc2)cc1OC | inconclusive: 32.1% | –
30 | CCCCn1c(N)c(N(CC(C)C)C(=O)C2=COCCO2)c(=O)[nH]c1=O | inconclusive: 2.26% | –
31 | COC(=O)C1=C(C)N(CCc2c[nH]c3ccccc23)C(=O)/C1=C\N(C)C | inconclusive: 25.1% | –
32 | O=C(Nc1ccc(-n2ccc(C(F)(F)F)n2)cc1)c1cccs1 | – | inconclusive: 29.1 µM [falling, single point]
33 | O=C(NCc1ccccc1)c1ccc(CN2CCOCC2)cc1 | – | inconclusive: 29.1 µM [falling, single point]
34 | Cc1ccc(C(=O)Nc2ccc(N3CCCC3)cc2)c(C)c1 | inconclusive: -12.9% | –
35 | CC(=O)c1ccc(N2CCN(C(=O)c3ccc4c(c3)OCO4)CC2)cc1 | inconclusive: 6.94% | –
36 | Cc1cc(Cl)ccc1OCC(=O)NC(=S)Nc1ccccc1N1CCOCC1 | inconclusive: -23.6% | –
37 | CC(OC(=O)c1ccc2ncsc2c1)C(=O)NC1CCCCC1C (stereo unspecified) | inconclusive | –
38 | CC(C)(C)C(=O)/C(=C/c1ccc(Cl)cc1)n1cncn1 | inconclusive: -90.5% | –
39 | CCOCCOC(=O)c1[nH]c2c(c1C)C(=O)CC(c1ccc(N(C)C)cc1)C2 (stereo unspecified) | inconclusive: 4.43% | –
40 | Cc1ccc(CNC(=O)c2cc(-c3cc(C)cc(C)c3O)n[nH]2)cc1 | inconclusive: -23.2% | –
41 | COc1cccc(/C=C2\Sc3ccc(C(=O)NCc4cccnc4)cc3N(C)C2=O)c1 | inactive | –
42 | CCc1ccc(OCC2c3cc(OC)c(OC)cc3CCN2C(=S)NC)cc1 (stereo unspecified) | inconclusive: 38.2% | –
43 | CC(=O)OCC(=O)NCc1ccc2c(c1)OCO2 | inconclusive: 13.5% | –
44 | Cc1cnc(NC(=O)c2ccc(F)c(S(=O)(=O)N3CCOCC3)c2)s1 | inconclusive: -41.6% | –
45 | CC1CCC(NC(=O)c2cccc(S(=O)(=O)NCc3ccccc3)c2)CC1 (stereo unspecified) | inconclusive: 30.4% | –
46 | CN1CCC(=O)N([C@H](CC#N)c2ccccc2)CC1 | inconclusive: 10.9% | –
47 | COC(=O)C1CCCN1S(=O)(=O)c1ccccc1NC(=O)c1cc(OC)c(OC)c(OC)c1 (stereo unspecified) | inconclusive: -10.1% | –
48 | Cc1oc2ccc(Br)cc2c(=O)c1-c1nn[nH]n1 | inconclusive: 21.5% | –
49 | NC(=O)c1ccccc1NC(=O)CC12CC3CC(CC(Br)(C3)C1)C2 | – | inconclusive: 0.326 µM [falling, partial curve, poor fit]
50 | CC(c1ccccc1)N1CCn2c(nc3cc(NC(=O)c4cccs4)ccc32)C1 (stereo unspecified) | – | inconclusive: 18.4 µM [activator, partial curve]
51 | COC(=O)c1[nH]c2ccc(F)cc2c1NC(=O)Nc1ccc(OC)cc1 | inconclusive: -17.4% | –
52 | CCCCN1CCN=C1Nc1ccccc1 | – | inconclusive: 29.1 µM [activator, single point]

Row | SMILES | lipid storage change, negative = inhibition | Potency
53 | COc1ccc(-c2noc(CN(C(=O)c3ccoc3C)C(C)C)n2)cc1 | inconclusive: 149% | –
54 | Brc1cccc(-c2nnc3sc(CNC4CCCC4)cn23)c1 | inconclusive: -19.6% | –
55 | Cc1c(C(=O)O)oc2ccc(S(=O)(=O)NCc3ccccc3)cc12 | – | inconclusive: 0.517 µM [activator, single point]
56 | Cc1ccc(/C=C2\C(=N)N3N=C(CC(=O)N4CCCCC4)SC3=NC2=O)cc1 | inconclusive: 60% | –
57 | Cn1nnnc1Sc1ncnc2scc(-c3ccc(C#N)cc3)c12 | inconclusive: 1.47% | –
58 | O=C(CN1C(=O)NC2(CCCCC2)C1=O)N1CCN(c2ncccn2)CC1 | – | inconclusive: 0.82 µM [activator, full curve, poor fit]
59 | CCOC(=O)CN(C(=O)CN1CCOCC1)c1ccc(Br)cc1 | – | inconclusive: 0.651 µM [activator, single point]
60 | COc1ccc(C)cc1NC(=O)C(c1ccccc1)N1CCNC(=O)C1 (stereo unspecified) | – | inconclusive: 0.0046 µM [activator, full curve, poor fit]
61 | CCOc1ccccc1CNC(=O)C1CCN(c2nn3c(=O)cc(C)nc3s2)CC1 | – | inconclusive: 6.51 µM [falling, single point]
62 | CC(=O)Nc1ccc(NC(=O)C2CCCCN2S(=O)(=O)c2ccc(C(C)(C)C)cc2)cc1 (stereo unspecified) | – | inconclusive: 11.6 µM [falling, single point]
63 | COc1ccccc1-c1c(C)nn2c(N3CCC(C)CC3)cc(C)nc12 | inconclusive: 5.12% | –
64 | C/C(=N/NS(=O)(=O)c1ccc(C)cc1)c1c[nH]c2ccccc12 | – | inconclusive: 6.51 µM [activator, single point]
65 | CCCc1cc(C(=O)N2CCN(C(c3ccccc3)c3ccccc3)CC2)no1 | inconclusive: 51.5% | –
66 | Cc1ccc(N(C(=O)c2ccc(CN3CCOCC3)o2)C(C(=O)NCCC(C)C)c2cccs2)c(C)c1 (stereo unspecified) | – | inconclusive: 5.8 µM [falling, partial curve, poor fit]
67 | COC(=O)c1ccc(NC(=O)c2nc(S(=O)(=O)Cc3cccc(C)c3)ncc2Cl)cc1 | – | inconclusive: 25.9 µM [falling, single point]
68 | O=C(Nc1nnc(-c2ccc(Br)cc2)o1)C1=COCCO1 | inconclusive | –
69 | COc1ccc(NS(=O)(=O)c2ccc(C)c(C(=O)OC(C)C(=O)N3CCOCC3)c2)cc1 (stereo unspecified) | inconclusive | –
70 | O=C(OCC(=O)N1CCOCC1)c1cccc(F)c1 | – | inconclusive: 5.8 µM [activator, single point]
71 | CC(C)n1c(=S)[nH]c2c1c(=O)[nH]c(=O)n2C | inconclusive: -12.7% | –
72 | CCCCC1(C)NC(=O)c2c(C)sc(C(=O)OCC)c2N1 (stereo unspecified) | inconclusive: 32.4% | –
73 | N/C(=N\OC(=O)c1ccc2c(c1)OCO2)c1ccc(Cl)cc1 | inconclusive: -2.47% | –
74 | CCC(=O)Nc1nonc1-c1nc2ccccc2n1N(C(=O)CC)C(=O)CC | – | inconclusive: 7.31 µM [falling, partial curve, poor fit]
75 | Cc1ccc(C(=O)c2ccccc2C(=O)OCC(=O)NCCc2ccc(Cl)cc2Cl)cc1 | – | inconclusive: 29.1 µM [falling, single point]
76 | O=C(O)c1nn(-c2ccccc2)nc1-c1nn(-c2ccccc2)nc1C(=O)O | inconclusive: -17.2% | –

Quoted at random: six compounds from above, in no set order.
Row | SMILES | lipid storage change, negative = inhibition | Potency
2 | O=C1CCCC2=C1C1(CCCC1)N=C(Nc1nc3ccccc3o1)N2 | – | inconclusive: 2.06 µM [activator, single point]
1 | O=C(C1CCC1)N1CCN(c2cccc(C(F)(F)F)c2)CC1 | inconclusive: -100% | –
13 | CCN1C(=S)SC(=O)C1=C1C=C(C)OC(C)=C1 | – | inconclusive: 32.6 µM [falling, single point]
31 | COC(=O)C1=C(C)N(CCc2c[nH]c3ccccc23)C(=O)/C1=C\N(C)C | inconclusive: 25.1% | –
48 | Cc1oc2ccc(Br)cc2c(=O)c1-c1nn[nH]n1 | inconclusive: 21.5% | –
35 | CC(=O)c1ccc(N2CCN(C(=O)c3ccc4c(c3)OCO4)CC2)cc1 | inconclusive: 6.94% | –

From PubChem BioAssay AID2685 (National Center for Advancing Translational Sciences (NCATS), 2010)
